From patent publication US20160046678A1 (ZYNGENIA, published 2016)
These are yes or no findings as the source states them, for the method shown. Some entries that bind do so weakly or less than the wild type.

By UniProt entry, the sequences of proteins in these tests, tags left out. Residues count along the entry.
UniProt P21860, residues 20-643: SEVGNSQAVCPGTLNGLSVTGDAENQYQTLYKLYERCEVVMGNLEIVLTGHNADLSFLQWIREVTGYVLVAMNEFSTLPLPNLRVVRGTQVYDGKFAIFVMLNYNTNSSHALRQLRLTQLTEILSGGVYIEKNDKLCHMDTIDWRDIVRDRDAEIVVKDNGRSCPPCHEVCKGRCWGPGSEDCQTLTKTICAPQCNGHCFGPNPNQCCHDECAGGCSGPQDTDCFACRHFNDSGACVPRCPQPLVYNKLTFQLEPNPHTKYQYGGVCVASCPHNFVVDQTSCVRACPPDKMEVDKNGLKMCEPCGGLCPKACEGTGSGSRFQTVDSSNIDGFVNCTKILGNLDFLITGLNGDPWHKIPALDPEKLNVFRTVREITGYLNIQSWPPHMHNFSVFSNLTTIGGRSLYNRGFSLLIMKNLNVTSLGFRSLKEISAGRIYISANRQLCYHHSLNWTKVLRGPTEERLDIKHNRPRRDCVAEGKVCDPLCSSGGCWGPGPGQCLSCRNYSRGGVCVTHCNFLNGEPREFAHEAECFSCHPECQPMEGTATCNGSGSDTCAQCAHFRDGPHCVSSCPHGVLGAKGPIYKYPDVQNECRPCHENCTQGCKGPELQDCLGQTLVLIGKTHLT

The binders below were run against ErbB3 (UniProt P21860) (assay: MRD screen, Example 48).

Binder | binding
PSEPYCPFLNPTWKAECIART [EGC1014] | binds
VDEPYCPFLNPNWKEACIARS [EGC994] | binds
LIEPYCPFLNPTWKEQCFVRS [EGC995] | binds
HSEPYCPFLNPTWKDECITRT [EGC1006] | binds
YREPYCPFLNPTWYVECIARS [EGC1008] | binds
PREPYCPFLNPVWKAQCIARW [EGC1000] | binds
LGEPYCPFLNPTWKLQCLART [EGC1016] | binds
YSDPYCPFLNPSWYDECVSRM [EGC1007] | binds
AGKPYCPFLNPSWYDECIRRL [EGC997] | binds
NDEPYCPFLNPIWKAQCLARN [EGC996] | binds
YREPYCPFLNPLWKDECIART [EGC1005] | binds
ATEPYCPFLNPIWKAQCIERM [EGC1015] | binds
STEPYCPFLNPTWKDQCIARI [EGC999] | binds
IGEPYCPFLNPTWKDQCLVRS [EGC1003] | binds
ESEPYCPFVNPIWKDQCMARY [EGC991] | binds
SSEPYCPFLNPTWYNECIYRI [EGC1012] | binds
ASDPYCPFLNPIWKDQCILRS [EGC989] | binds
ASEPYCPFLNPTWRDACLART [EGC1010] | binds
QSEPYCPFLNPTWYTECVART [EGC985] | binds
SSVPYCPFKNPTWKAECIART [EGC1004] | binds
LSAPYCPFLNPTWKDQCLART [EGC992] | binds
DNDPYCPFLNPTWKEECVARS [EGC990] | binds
LREPYCPFLNPTWKEQCIARS [EGC1011] | binds
LREPYCPFENPIWKEKCIAIT [EGC1013] | binds
SHEPYCPFLNPEWKAECIARN [EGC988] | binds
HREPYCPFLNPAWKEQCLVRS [EGC1009] | binds
ISAPYCPFKNPIWKAECIARS [EGC1001] | binds
SSEPYCPFLNPIWKQACYDRT [EGC993] | binds
LSEPYCPFLNPIWKDQCMIRS [EGC998] | binds
SSQPYCPFLNPTWKDACLART [EGC986] | binds

Now from value to binder:

binding | Binder
binds | ASEPYCPFWNPIWKAQCIARI [EGC1026]
binds | GWCFEYYPEVSRFVYSDCNS [EGC1047]
binds | YQVKCPFQNPVWWSHCMYLL [EGC1035]
binds | VIEPYCPFLNPIWKEQCIARS [EGC1020]
binds | GYCATDYWDYNGVWGTYCTQ [EGC1031]
binds | TCCRDYWMYRFLYTQCGM [EGC1040]
binds | LATWCQRWLASACFGLF [EGC1046]
binds | KECLFTVPGVQHPVMWYCLT [EGC1037]
binds | ETLACAKLMPWYNECLARF [EGC1042]
binds | LGEPYCPFLNPTWKDQCTARS [EGC1022]
binds | ATEPYCPFLNPVWKDQCILRT [EGC1017]
binds | LLCRGQTANNLQPDECLT [EGC1039]
binds | WQCEWQWVQEWGAWDKFCVM [EGC1044]
binds | MSCDEAWYNEQTWLWCVT [EGC1029]
binds | RYCYLFEKYAPFYDQCLL [EGC1032]
binds | PKVRCPFQNPIWWSHCMEIL [EGC1053]
binds | GREPYCPFLNPVWYNECMVRF [EGC1019]
binds | RYCYLFQKYAPFYDQCLL [EGC1033]
binds | GYCFLFYKFPQYHMQCII [EGC1036]

binding | Binder
binds | WHCEWHWVQEWGAWDEFCVM [EGC1052]
binds | PIEPYCPFINPMWKAECIART [EGC1018]
binds | YQVKCPFQNPVWWTHCMYLL [EGC1049]
binds | SVCHKMWPIIDDLYYCLR [EGC1056]
binds | RYCDHFVNHHDYYKLCLT [EGC1043]
binds | WHCQWFWVPEWGAWDEFCVM [EGC1050]
binds | GYCFLFYKFPQYHMQCIS [EGC1059]
binds | YQVRCPFQNPVWWSHCMYLL [EGC1058]
binds | ISEPYCPFVNPTWKAQCIART [EGC1027]
binds | VIEPYCPFVNPTWKEQCILRS [EGC1028]
binds | TIEPYCPFLNPTWYKECLLRS [EGC1021]
binds | LLCRGQSANNLQRDECLR [EGC1060]
binds | SFHRCFEWVRHNCVWGA [EGC1041]
binds | SLCQHFQQQPVWYQACIR [EGC1057]
binds | WQCEWQWVQEWGAWDEFCVM [EGC1030]
binds | STCLLQYYQFDVFSKKFCPL [EGC1051]
binds | WSEPYCPFLNPTWKAECIART [EGC1025]
binds | LERLCIEIWSYHCRSFL [EGC1045]
binds | GCCYWWGLVYDKWIKCET [EGC1034]
